± gives the standard deviation of the averaged measurements. Only a part is listed here, and it is no random draw. Small differences around the control level are noise.

Sequences of proteins named here, by UniProt entry; tags and fusion partners are left off. A change or cut given only in a name is not applied to a line headed by its entry.
UniProt Q9H2P9: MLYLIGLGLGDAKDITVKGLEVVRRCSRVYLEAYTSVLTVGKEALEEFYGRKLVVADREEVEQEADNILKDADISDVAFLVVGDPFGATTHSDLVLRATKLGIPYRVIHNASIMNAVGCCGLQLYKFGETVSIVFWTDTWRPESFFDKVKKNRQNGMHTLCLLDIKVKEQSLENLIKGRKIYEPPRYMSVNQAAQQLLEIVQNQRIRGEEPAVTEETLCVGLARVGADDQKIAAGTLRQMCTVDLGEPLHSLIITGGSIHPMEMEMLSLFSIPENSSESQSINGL
UniProt O14526: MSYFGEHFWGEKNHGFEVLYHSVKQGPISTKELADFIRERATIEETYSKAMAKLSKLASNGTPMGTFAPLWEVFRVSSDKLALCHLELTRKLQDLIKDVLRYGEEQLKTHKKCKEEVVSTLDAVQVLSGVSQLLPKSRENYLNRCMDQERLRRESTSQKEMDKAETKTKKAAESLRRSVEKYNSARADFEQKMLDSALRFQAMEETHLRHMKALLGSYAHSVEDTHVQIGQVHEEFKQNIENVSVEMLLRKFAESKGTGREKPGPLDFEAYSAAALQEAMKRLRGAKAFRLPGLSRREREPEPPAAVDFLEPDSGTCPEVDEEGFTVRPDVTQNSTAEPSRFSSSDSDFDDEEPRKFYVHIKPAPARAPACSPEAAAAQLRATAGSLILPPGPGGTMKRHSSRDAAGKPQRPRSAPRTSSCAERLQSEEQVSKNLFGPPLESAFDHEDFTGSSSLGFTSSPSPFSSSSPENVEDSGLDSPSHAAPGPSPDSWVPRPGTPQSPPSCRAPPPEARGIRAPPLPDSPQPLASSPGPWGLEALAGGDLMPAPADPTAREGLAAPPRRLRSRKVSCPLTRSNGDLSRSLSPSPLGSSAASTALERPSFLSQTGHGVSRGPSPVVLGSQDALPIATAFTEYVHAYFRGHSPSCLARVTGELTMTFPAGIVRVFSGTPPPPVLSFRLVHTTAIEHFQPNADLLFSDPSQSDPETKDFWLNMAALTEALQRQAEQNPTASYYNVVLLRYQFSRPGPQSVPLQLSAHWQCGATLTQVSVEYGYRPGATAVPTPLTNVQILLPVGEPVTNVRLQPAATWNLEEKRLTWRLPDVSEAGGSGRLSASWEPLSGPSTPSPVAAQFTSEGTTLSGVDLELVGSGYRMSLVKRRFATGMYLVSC
UniProt Q9UBW5: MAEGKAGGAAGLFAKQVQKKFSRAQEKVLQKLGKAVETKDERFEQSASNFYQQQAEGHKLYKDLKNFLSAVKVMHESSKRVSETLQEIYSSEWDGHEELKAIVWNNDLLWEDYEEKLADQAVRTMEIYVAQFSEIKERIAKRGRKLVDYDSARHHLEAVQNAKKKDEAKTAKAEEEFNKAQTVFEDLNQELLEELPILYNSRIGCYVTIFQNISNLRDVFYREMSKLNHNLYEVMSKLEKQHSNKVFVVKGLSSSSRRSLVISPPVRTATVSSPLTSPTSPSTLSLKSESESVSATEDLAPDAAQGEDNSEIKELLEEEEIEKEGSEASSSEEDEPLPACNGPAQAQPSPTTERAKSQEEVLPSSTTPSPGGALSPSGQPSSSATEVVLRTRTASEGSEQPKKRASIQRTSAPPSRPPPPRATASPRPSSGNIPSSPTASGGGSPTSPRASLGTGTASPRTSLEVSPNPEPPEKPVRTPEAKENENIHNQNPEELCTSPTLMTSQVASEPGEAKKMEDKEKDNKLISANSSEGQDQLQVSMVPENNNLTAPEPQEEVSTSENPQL
UniProt A1L0T0: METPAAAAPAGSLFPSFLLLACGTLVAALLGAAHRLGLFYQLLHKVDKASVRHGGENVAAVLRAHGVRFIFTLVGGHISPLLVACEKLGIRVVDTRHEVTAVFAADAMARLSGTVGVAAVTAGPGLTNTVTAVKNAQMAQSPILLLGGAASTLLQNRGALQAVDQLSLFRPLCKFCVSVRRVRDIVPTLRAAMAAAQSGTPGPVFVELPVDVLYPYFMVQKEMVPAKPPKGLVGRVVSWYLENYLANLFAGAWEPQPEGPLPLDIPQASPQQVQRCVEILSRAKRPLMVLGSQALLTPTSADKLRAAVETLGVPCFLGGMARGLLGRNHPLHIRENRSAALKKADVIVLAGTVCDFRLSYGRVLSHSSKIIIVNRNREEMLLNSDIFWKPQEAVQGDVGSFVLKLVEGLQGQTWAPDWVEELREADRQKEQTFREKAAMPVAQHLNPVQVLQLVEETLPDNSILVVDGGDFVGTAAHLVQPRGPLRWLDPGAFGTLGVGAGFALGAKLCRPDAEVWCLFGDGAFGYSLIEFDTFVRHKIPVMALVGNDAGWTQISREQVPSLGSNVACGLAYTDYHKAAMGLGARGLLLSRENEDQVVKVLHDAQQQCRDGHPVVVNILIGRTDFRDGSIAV
UniProt Q9UBF8: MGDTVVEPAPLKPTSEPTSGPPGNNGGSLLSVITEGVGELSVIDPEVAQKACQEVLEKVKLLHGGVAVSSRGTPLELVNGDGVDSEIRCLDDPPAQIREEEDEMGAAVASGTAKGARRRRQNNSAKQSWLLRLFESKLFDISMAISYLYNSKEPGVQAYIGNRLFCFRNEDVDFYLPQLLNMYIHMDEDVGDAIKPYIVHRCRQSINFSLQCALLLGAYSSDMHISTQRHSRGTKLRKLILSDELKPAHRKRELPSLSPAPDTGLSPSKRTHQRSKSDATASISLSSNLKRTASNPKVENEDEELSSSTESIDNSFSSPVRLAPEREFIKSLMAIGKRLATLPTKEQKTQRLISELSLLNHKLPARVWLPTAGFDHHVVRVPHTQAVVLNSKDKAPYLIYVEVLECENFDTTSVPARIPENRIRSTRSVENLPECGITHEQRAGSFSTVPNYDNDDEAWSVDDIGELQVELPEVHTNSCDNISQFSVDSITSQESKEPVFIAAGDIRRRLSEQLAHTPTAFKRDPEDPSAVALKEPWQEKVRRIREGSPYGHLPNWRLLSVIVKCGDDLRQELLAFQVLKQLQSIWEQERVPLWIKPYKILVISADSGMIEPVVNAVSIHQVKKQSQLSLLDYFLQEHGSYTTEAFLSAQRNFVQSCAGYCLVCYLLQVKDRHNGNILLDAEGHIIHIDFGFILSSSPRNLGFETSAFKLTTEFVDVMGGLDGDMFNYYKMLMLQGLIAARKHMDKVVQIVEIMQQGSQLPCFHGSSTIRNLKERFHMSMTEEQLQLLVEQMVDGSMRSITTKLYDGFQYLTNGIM
UniProt Q14160: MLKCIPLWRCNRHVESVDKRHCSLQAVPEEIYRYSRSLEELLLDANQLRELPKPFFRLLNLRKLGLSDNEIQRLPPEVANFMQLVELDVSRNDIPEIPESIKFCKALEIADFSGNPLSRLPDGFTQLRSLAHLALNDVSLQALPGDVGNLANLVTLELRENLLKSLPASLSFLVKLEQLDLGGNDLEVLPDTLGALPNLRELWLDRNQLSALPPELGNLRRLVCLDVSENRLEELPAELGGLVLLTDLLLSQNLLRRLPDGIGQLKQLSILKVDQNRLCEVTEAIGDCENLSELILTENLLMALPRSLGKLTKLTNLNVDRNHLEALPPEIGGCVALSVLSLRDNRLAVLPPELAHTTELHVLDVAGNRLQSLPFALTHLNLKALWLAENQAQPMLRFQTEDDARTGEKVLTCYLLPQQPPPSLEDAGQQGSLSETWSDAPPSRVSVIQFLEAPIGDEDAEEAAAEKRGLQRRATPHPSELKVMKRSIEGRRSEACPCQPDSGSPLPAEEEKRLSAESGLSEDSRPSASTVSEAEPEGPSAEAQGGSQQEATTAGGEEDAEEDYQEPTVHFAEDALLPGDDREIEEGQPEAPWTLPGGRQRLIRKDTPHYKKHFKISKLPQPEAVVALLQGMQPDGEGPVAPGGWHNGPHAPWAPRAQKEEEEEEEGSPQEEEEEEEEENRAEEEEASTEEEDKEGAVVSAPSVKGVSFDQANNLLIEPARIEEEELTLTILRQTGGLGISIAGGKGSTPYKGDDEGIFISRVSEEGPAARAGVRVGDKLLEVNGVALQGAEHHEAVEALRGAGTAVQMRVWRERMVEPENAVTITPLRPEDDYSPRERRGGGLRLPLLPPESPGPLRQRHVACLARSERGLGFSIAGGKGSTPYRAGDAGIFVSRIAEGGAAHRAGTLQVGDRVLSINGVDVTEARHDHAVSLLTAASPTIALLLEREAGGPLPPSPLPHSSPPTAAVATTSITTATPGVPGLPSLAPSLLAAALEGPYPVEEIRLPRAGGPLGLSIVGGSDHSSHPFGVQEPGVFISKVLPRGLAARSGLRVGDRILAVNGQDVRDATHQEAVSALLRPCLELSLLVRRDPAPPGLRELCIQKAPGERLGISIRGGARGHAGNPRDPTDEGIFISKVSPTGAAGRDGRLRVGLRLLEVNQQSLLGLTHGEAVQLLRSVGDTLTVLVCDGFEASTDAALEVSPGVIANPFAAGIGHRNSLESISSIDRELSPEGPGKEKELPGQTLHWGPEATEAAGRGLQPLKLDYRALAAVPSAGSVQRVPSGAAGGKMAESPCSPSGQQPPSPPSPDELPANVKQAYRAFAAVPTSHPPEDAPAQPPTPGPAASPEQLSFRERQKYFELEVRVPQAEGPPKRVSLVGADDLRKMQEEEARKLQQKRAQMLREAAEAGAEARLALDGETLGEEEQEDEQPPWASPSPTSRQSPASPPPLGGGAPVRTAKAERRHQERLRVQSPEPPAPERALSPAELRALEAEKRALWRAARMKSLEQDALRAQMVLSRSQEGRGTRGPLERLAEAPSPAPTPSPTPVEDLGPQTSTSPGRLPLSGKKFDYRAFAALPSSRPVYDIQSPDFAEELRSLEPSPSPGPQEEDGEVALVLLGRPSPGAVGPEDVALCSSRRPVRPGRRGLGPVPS
UniProt Q86SQ7: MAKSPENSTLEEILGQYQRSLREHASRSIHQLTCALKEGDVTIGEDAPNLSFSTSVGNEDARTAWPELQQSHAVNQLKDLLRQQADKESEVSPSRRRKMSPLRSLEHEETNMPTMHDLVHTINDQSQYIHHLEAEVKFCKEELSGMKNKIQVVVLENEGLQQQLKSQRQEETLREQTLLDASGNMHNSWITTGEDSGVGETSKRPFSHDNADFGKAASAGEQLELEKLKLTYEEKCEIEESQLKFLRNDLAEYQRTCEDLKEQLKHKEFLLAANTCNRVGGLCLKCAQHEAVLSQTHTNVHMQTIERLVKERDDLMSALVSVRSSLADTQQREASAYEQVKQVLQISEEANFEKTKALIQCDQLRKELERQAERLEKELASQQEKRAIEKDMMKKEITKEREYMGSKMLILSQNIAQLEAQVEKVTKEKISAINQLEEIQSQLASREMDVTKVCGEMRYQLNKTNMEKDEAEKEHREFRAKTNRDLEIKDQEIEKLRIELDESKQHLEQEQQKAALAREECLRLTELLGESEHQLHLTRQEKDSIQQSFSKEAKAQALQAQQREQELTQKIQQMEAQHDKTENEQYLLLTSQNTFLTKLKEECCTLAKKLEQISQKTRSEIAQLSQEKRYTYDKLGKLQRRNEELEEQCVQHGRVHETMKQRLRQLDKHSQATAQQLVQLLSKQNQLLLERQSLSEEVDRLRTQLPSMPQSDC
UniProt Q14114: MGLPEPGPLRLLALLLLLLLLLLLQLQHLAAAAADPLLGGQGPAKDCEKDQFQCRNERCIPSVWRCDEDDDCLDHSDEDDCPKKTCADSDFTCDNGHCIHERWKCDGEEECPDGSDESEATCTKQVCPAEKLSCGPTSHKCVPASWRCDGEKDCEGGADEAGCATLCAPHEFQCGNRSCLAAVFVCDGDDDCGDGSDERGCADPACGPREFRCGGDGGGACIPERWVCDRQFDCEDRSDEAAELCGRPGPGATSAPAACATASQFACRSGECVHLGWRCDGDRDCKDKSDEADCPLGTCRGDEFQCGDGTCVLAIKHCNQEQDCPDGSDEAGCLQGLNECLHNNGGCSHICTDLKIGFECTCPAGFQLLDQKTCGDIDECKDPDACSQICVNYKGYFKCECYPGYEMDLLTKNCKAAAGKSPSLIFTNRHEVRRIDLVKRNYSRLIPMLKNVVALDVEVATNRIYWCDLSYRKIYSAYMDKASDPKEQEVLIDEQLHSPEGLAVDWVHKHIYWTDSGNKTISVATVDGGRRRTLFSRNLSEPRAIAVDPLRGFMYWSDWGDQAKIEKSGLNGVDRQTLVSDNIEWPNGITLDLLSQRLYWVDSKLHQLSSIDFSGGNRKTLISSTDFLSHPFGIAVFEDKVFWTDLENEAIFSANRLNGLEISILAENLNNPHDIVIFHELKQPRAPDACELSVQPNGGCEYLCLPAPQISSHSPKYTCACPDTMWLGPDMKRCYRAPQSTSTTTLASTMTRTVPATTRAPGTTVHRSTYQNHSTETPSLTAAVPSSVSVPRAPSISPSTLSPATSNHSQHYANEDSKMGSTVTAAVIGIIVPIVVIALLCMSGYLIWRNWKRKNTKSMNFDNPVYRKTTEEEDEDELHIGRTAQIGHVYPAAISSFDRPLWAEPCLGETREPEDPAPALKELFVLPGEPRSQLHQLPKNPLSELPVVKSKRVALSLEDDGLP

Compound in this test: Nc1ncnc2c1ncn2[C@@H]1O[C@H](COP(=O)(O)OP(=O)(O)NP(=O)(O)O)[C@@H](O)[C@H]1O [adenylyl imidodiphosphate]
Briefly: NP40-soluble protein abundance relative to vehicle (solubility fold change) (ratio); higher = more soluble protein in presence of AMP-PNP. The procedure, abridged: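 Each value is a fold change relative to the detergent-processed vehicle, calculated per replicate from vsn-normalised intensities. Jurkat crude lysate received eight concentrations (0.1 to 10 mM) for 10 min at room temperature and 3 min at 37 °C, then was solubilised in 0.8% NP40 with benzonase (60 min, 4 °C). The ultracentrifuged supernatant was TMT-labelled and run by LC-MS/MS in three independent experiments.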

For “A0A087WXP7|Q9H2P9 and related entries (UniProt Q9H2P9)”, the NP40-soluble protein abundance runs as follows: (concentration: 0.1mM) 0.961 ± 0.0038; (concentration: 0.5mM) 0.995 ± 0.025.

Turning to “A0A0C3SFZ9|M0QZI3 and related entries (UniProt O14526)”, the NP40-soluble protein abundance is 0.99 ± 0.037 (concentration: 0.1mM) and 0.987 ± 0.045 (concentration: 0.5mM).

Take “A0A0B4J2F8|A6NFM0 and related entries (UniProt Q9GZM3+Q9H1A7+P52435+F6S314+E2QRJ6+A6NFM0)”: the NP40-soluble protein abundance is 1.02 ± 0.02 (concentration: 0.1mM) and 1.09 ± 0.021 (concentration: 0.5mM).

For the target A0A0A0MQY7|Q5VU97 (UniProt Q5VU97), the NP40-soluble protein abundance turned out to be 0.9917 ± 0.0027 (concentration: 0.1mM) and 1.008 ± 0.00073 (concentration: 0.5mM).

Regarding “A0A0G2JNT7|A0A0G2JQF4|Q7Z3B3 and related entries (UniProt Q7Z3B3)”, the NP40-soluble protein abundance reads like this: (concentration: 0.1mM) 0.963 ± 0.035; (concentration: 0.5mM) 0.981 ± 0.05.

As to A0A087X2I1|P62333 (UniProt P62333), the NP40-soluble protein abundance (concentration: 0.1mM) was 0.997 ± 0.023 and the NP40-soluble protein abundance (concentration: 0.5mM) was 0.971 ± 0.043.

On to “A0A087WYU1|A0A087WZW2|Q9Y5X1 (UniProt Q9Y5X1)”, for which the NP40-soluble protein abundance worked out at 0.997 ± 0.03 (concentration: 0.1mM) and 1.06 ± 0.012 (concentration: 0.5mM).

Take A0A087X188|Q9UBW5 (UniProt Q9UBW5): the NP40-soluble protein abundance (concentration: 0.1mM) stood at 0.995 ± 0.035 and the NP40-soluble protein abundance (concentration: 0.5mM) turned out to be 0.998 ± 0.035.

On to UniProt A1L0T0 and related entries, for which the NP40-soluble protein abundance (concentration: 0.1mM) is 0.98 ± 0.024 and the NP40-soluble protein abundance (concentration: 0.5mM) was found to be 0.992 ± 0.037.

For the target “A0A0C4DGW2|P57768 and related entries (UniProt P57768)”, the NP40-soluble protein abundance by setting is: (concentration: 0.1mM) 0.996 ± 0.016; (concentration: 0.5mM) 1.01 ± 0.04.

On to “A0A0B4J1S8|Q9UBF8 and related entries (UniProt Q9UBF8)”, for which the NP40-soluble protein abundance (concentration: 0.1mM) is 1.02 ± 0.016 and the NP40-soluble protein abundance (concentration: 0.5mM) was 0.9603 ± 0.0078.

Regarding “A0A0A0MT40|H3BUD4 and related entries (UniProt Q15111)”, the NP40-soluble protein abundance by setting is: (concentration: 0.1mM) 0.96 ± 0.018; (concentration: 0.5mM) 0.977 ± 0.044.

“A0A0J9YXZ6|A0A0J9YY83|Q4VXZ8 and related entries (UniProt Q9NUI1)”: the NP40-soluble protein abundance by setting is: (concentration: 0.1mM) 1.01 ± 0.031; (concentration: 0.5mM) 0.993 ± 0.049.

For A0A0A0MRU8|Q9Y4X4 (UniProt Q9Y4X4), the NP40-soluble protein abundance is, setting by setting: (concentration: 0.1mM) 1 ± 0.013; (concentration: 0.5mM) 1.004 ± 0.0068.

Consider “A0A087X0V4|A8K0B5 and related entries (UniProt Q8IWT0)”, for which the NP40-soluble protein abundance reads like this: (concentration: 0.1mM) 1 ± 0.031; (concentration: 0.5mM) 0.961 ± 0.094.

A0A0A0MT23|A0A0A0MST9 (UniProt P27448): the NP40-soluble protein abundance by setting is: (concentration: 0.1mM) 1.05 ± 0.03; (concentration: 0.5mM) 1.05 ± 0.0066.

For A0A140T9T7|Q03518 (UniProt Q03518), the NP40-soluble protein abundance was 1.03 ± 0.024 (concentration: 0.1mM) and 1.02 ± 0.044 (concentration: 0.5mM).

In the case of “A0A0G2JPP5|Q14160-3|A0A0G2JNZ2|Q14160 (UniProt Q14160)”, the NP40-soluble protein abundance by setting is: (concentration: 0.1mM) 0.982 ± 0.023; (concentration: 0.5mM) 0.982 ± 0.022.

A0A0C4DGH3|Q9Y6R0 (UniProt Q9Y6R0): the NP40-soluble protein abundance by setting is: (concentration: 0.1mM) 0.994 ± 0.051; (concentration: 0.5mM) 0.995 ± 0.11.

In the case of A0A0X1KG71|Q8WX92 (UniProt Q8WX92), the NP40-soluble protein abundance runs as follows: (concentration: 0.1mM) 0.995 ± 0.022; (concentration: 0.5mM) 1.01 ± 0.039.

As for “A0A0G2JR50|Q86SQ7 and related entries (UniProt Q86SQ7)”, the NP40-soluble protein abundance reads like this: (concentration: 0.1mM) 0.987 ± 0.022; (concentration: 0.5mM) 0.966 ± 0.032.

For the target “A0A0D9SFR6|Q86XP1 and related entries (UniProt Q86XP1)”, the NP40-soluble protein abundance came to 0.99 ± 0.029 (concentration: 0.1mM) and 1.01 ± 0.024 (concentration: 0.5mM).

For “A0A087WXR2|F5H1Z6 and related entries (UniProt Q9Y365)”, the NP40-soluble protein abundance (concentration: 0.1mM) is 1.01 ± 0.033 and the NP40-soluble protein abundance (concentration: 0.5mM) was determined as 1.03 ± 0.053.

Turning to “A0A0D9SEY1|E7ESS2 and related entries (UniProt O95819)”, the NP40-soluble protein abundance (concentration: 0.1mM) was found to be 1.02 ± 0.024 and the NP40-soluble protein abundance (concentration: 0.5mM) is 1.02 ± 0.044.

Consider “A0A0C4DG17|C9J9K3 and related entries (UniProt P08865)”, for which the NP40-soluble protein abundance runs as follows: (concentration: 0.1mM) 1.07 ± 0.043; (concentration: 0.5mM) 1.033 ± 0.009.

Turning to A0A087WYN9|Q7Z478 (UniProt Q7Z478), the NP40-soluble protein abundance runs as follows: (concentration: 0.1mM) 1.13 ± 0.026; (concentration: 0.5mM) 1.18 ± 0.047.

As to “A0A087X159|P81877 and related entries (UniProt P81877)”, the NP40-soluble protein abundance came to 0.993 ± 0.039 (concentration: 0.1mM) and 0.997 ± 0.031 (concentration: 0.5mM).

On to “A0A087WW84|Q14114 and related entries (UniProt Q14114)”, for which the NP40-soluble protein abundance (concentration: 0.1mM) was 0.993 ± 0.024 and the NP40-soluble protein abundance (concentration: 0.5mM) was 0.984 ± 0.043.

Consider A0A0B4J2E5|Q15269 (UniProt Q15269), for which the NP40-soluble protein abundance was determined as 1.04 ± 0.024 (concentration: 0.1mM) and 1.03 ± 0.054 (concentration: 0.5mM).

Regarding “A0A0C4DFL8|F5GX28 and related entries (UniProt O94953)”, the NP40-soluble protein abundance is, setting by setting: (concentration: 0.1mM) 0.997 ± 0.033; (concentration: 0.5mM) 0.996 ± 0.046.

Turning to A0A0C4DFZ2|P15289 (UniProt P15289), the NP40-soluble protein abundance stood at 1.01 ± 0.036 (concentration: 0.1mM) and 0.998 ± 0.014 (concentration: 0.5mM).

On to “A0A087X0V5|P29728 and related entries (UniProt P29728)”, for which the NP40-soluble protein abundance (concentration: 0.1mM) is 1.04 ± 0.019 and the NP40-soluble protein abundance (concentration: 0.5mM) amounted to 1.08 ± 0.086.

For the target “A0A0A0MRE6|O94967 and related entries (UniProt O94967)”, the NP40-soluble protein abundance is, setting by setting: (concentration: 0.1mM) 1 ± 0.04; (concentration: 0.5mM) 0.97 ± 0.051.

With “A0A0B4J1Z1|C9JAB2 and related entries (UniProt Q16629)”, the NP40-soluble protein abundance (concentration: 0.1mM) was found to be 1.05 ± 0.016 and the NP40-soluble protein abundance (concentration: 0.5mM) was 1.04 ± 0.035.

These data come from the supplement of paper PMC6411743.
